Source: patent US4461724A, “Peptide compounds, a process for manufacturing them, pharmaceutical compositions containing them, and methods for treating ulcer and thrombus with them” (Nippon Zoki Pharmaceutical Co., Ltd., priority 1981, dated 1984)
Part of at least one peptide drawing is inferred or uncertain, most often the ends. Peptide text beside a SMILES is read from it.

Tested on: histamine-induced ulcer in rats
Test: Histamine-induced ulcer inhibiting effect (Table 1)
Assay type: in vivo, Wister strain male rats
Conditions: 20 mg/kg i.v., histamine dihydrochloride 300 mg/kg i.p., 4 hours
Experimental: Groups each consisting of 10 Wister strain male rats (120-130 g) were starved for 24 hours, and the drug to be tested were intravenously administered (i.v.). Immediately thereafter, according to the method by Bucher et al. [Bucher, F. et al., Beitr. Path. Anat. 81, 391 (1928)], 300 mg/kg of histamine dihydrochloride was administered intraperitoneally (i.p.). Four hours later, each animal was decapitated to bleed, and the stomach was removed. 6 ml of physiological saline was infused into the removed stomach, which was then dipped in 10% formalin for 10 minutes. Then, the stomach was incised along the greater curvature. The ulcer appeared on the stomach mucous membrane was observed on a stereoscopic microscope to measure the surface area of the ulcer lesion, and the total area was designated as the ulcer coefficient.

SMILES: NCCCC[C@H](NC(=O)[C@H](Cc1c[nH]cn1)NC(=O)[C@H](CO)NC(=O)[C@@H](N)Cc1ccc(O)cc1)C(=O)O [Compound 24, Tyr-Ser-His-Lys] (H-YSHK-OH)
- Inhibition rate (%): 54.6%
- Ulcer coefficient (total surface area of ulcer lesion) (mean ± S.E., control 28.4 ± 3.2): 12.9 ± 1.1
